Data: PMC6083452

Chains of the proteins cited; added tags and fusions are not shown. Lines headed by an entry give the natural chain unless they say otherwise; changes in a name come on top.
UniProt Q21731: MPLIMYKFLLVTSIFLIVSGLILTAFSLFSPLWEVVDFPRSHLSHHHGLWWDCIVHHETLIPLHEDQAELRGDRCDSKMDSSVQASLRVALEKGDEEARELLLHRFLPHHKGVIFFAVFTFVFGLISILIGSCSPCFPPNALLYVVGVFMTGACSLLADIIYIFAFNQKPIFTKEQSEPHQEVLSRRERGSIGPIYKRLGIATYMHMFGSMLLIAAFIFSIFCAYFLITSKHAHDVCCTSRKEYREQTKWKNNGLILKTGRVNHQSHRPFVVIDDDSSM

Assays:
[1] = molecular target: T1, UNC-38 (C. elegans (endogenous in C. elegans)) (UniProt Q23022); assay: co-IP; 3 mg protein extract of C. elegans expressing HPO-30::mCherry in muscles, incubated with UNC-29 and UNC-38 antibodies at 4°C for 4 h, then protein A/G beads for 3 h; 5 washes with ice-cold lysis buffer; blot with anti-mCherry; control: beads only without antibody
T1 sequence: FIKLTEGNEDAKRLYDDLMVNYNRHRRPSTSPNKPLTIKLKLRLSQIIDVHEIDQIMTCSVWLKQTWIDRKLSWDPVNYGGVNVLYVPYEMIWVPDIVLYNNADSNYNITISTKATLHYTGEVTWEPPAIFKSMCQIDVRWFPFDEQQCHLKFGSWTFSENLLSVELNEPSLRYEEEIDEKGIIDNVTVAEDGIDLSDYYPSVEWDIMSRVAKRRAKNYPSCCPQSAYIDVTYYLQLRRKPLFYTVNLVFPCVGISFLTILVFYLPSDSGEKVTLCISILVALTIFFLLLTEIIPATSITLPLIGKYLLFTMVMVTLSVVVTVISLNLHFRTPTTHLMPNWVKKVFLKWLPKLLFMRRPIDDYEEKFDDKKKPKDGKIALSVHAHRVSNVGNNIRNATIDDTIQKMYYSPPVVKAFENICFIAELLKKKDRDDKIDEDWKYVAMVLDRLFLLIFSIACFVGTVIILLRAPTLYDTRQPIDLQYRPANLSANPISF

[2] = molecular target: T2, UNC-29 (C. elegans (endogenous in C. elegans)) (UniProt P48181); assay: as above
T2 sequence: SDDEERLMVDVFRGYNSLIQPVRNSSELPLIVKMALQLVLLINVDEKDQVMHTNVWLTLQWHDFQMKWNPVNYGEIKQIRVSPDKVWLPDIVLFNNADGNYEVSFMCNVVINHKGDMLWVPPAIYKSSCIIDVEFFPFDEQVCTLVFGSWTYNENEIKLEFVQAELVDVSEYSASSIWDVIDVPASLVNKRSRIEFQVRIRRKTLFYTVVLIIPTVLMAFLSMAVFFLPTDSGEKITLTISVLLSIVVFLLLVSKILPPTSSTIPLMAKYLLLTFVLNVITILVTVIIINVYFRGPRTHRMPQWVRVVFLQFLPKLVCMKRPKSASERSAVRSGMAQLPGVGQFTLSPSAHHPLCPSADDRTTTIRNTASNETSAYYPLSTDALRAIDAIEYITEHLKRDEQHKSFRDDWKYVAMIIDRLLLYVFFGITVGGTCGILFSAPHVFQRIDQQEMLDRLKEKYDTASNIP

binding [1]: binds | binding [2]: binds
Substance: HPO-30::mCherry (from UniProt Q21731)

These are yes or no findings as the source states them, for the method shown. In cells and extracts the contact can be indirect. Binding calls can cover weak binding; strength is not graded here.
